Measurements reported in patent US20240092888A1 (AULOS BIOSCIENCE, published 2024).
No constants are given. Whether binding was seen depends on the method and setting.

How the values were obtained:
[1] = biological target: OX40; test: yeast surface display, flow cytometry, mixture of 500 nM soluble TNFR2, 500 nM OX40 and 500 nM PD1
[2] = biological target: PD1; test: as above
[3] = biological target: soluble TNFR2; test: as above
[4] = biological target: OX40; test: yeast surface display flow cytometry, clone labelled with a mixture of 500 nM soluble TNFR2, 500 nM OX40 and 500 nM PD1; one bar for the whole mixture
[5] = biological target: PD1; test: as above
[6] = biological target: soluble TNFR2; test: as above

Measured: binding

B1: clone 2 (17.022) scFv, yeast surface display clone (scFv)
scFv: EIQLQQSGPELRRPGSSVKLSCKASGYNITDYLIHWVRHRPEHGLEWIGWIDPEDGETRYAQKFQSKATLTADTSSNAAYMQLSSLTPEDTATYFCARSLDSTWIYPFAYWGQGTLVTVSSGGGGSGGGGSGGGGSDIVMTQSPFSLAVSEGEMVTINCKSSQSLLRSGNQKNYLAWYQQKPGQSPKLLIYYASTGQSGVPDRFIGSGSGTDFTLTISDVQAEDLADYYCLQHYITPPTFGAGTKLELK
no binding (tested: 500 nM): [1] | [2] | [3] | [4] | [5] | [6]

B2: clone 5 (17.030) scFv, yeast surface display clone (scFv)
scFv: EIQLQQSGPELRRPGSSVKLSCKASGYNITDYLIHWVRHRPEHGLEWIGWIDPEDGETRYAQKFQSKATLTADTSSNAAYMQLSSLTPEDTATYFCARSLDSTYDYPFAYWGQGTLVTVSSGGGGSGGGGSGGGGSDIVMTQSPFSLAVSEGEMVTINCKSSQSLLRSGNQKNYLAWYQQKPGQSPKLLIYYASTGQSGVPDRFIGSGSGTDFTLTISDVQAEDLADYYCLQHYISPPTFGAGTKLELK
no binding (tested: 500 nM): [1] | [2] | [3] | [4] | [5] | [6]

B3: clone 4 (17.023) scFv, yeast surface display clone (scFv)
scFv: EIQLQQSGPELRRPGSSVKLSCKASGYNITDYLIHWVRHRPEHGLEWIGWIDPEDGETRYAQKFQSKATLTADTSSNAAYMQLSSLTPEDTATYFCARQLDSTYIYPFAYWGQGTLVTVSSGGGGSGGGGSGGGGSDIVMTQSPFSLAVSEGEMVTINCKSSQSLLRSGNQKNYLAWYQQKPGQSPKLLIYYASTGQSGVPDRFIGSGSGTDFTLTISDVQAEDLADYYCLQHYITPPTFGAGTKLELK
no binding (tested: 500 nM): [1] | [2] | [3] | [4] | [5] | [6]

B4: clone 1 (17.021) scFv, yeast surface display clone (scFv)
scFv: EIQLQQSGPELRRPGSSVKLSCKASGYNITDNLIHWVRHRPEHGLEWIGWIDPEDGETRYAQKFQSKATLTADTSSNAAYMQLSSLTPEDTATYFCARSLDSTYIYPFAYWGQGTLVTVSSGGGGSGGGGSGGGGSDIVMTQSPFSLAVSEGEMVTINCKSSQSLLRSGNQKNYLAWYQQKPGQSPKLLIYYASTGQSGVPDRFIGSGSGTDFTLTISDVQAEDLADYYCLQHYQSPPTFGAGTKLELK
no binding (tested: 500 nM): [1] | [2] | [3] | [4] | [5] | [6]

B5: clone 6 (17.035) scFv, yeast surface display clone (scFv)
scFv: EIQLQQSGPELRRPGSSVKLSCKASGYNITDYLIHWVRHRPEHGLEWIGWIDPEDGETRYAQKFQSKATLTADTSSNAAYMQLSSLTPEDTATYFCARSLDSTYNYPFAYWGQGTLVTVSSGGGGSGGGGSGGGGSDIVMTQSPFSLAVSEGEMVTINCKSSQSLLRSGNQKNYLAWYQQKPGQSPKLLIYYASTGQSGVPDRFIGSGSGTDFTLTISDVQAEDLADYYCLQHWISPPTFGAGTKLELK
no binding (tested: 500 nM): [1] | [2] | [3] | [4] | [5] | [6]
